The supplement of paper PMC12067093, “Discovery and optimisation of a covalent ligand for TRIM25 and its application to targeted protein ubiquitination” (Chemical Science, 2025)
The list shows a part of the results.

Amino acid sequences for entries named in this document (tags omitted). A change or cut given only in a name is not applied to a line headed by its entry.
UniProt O15357: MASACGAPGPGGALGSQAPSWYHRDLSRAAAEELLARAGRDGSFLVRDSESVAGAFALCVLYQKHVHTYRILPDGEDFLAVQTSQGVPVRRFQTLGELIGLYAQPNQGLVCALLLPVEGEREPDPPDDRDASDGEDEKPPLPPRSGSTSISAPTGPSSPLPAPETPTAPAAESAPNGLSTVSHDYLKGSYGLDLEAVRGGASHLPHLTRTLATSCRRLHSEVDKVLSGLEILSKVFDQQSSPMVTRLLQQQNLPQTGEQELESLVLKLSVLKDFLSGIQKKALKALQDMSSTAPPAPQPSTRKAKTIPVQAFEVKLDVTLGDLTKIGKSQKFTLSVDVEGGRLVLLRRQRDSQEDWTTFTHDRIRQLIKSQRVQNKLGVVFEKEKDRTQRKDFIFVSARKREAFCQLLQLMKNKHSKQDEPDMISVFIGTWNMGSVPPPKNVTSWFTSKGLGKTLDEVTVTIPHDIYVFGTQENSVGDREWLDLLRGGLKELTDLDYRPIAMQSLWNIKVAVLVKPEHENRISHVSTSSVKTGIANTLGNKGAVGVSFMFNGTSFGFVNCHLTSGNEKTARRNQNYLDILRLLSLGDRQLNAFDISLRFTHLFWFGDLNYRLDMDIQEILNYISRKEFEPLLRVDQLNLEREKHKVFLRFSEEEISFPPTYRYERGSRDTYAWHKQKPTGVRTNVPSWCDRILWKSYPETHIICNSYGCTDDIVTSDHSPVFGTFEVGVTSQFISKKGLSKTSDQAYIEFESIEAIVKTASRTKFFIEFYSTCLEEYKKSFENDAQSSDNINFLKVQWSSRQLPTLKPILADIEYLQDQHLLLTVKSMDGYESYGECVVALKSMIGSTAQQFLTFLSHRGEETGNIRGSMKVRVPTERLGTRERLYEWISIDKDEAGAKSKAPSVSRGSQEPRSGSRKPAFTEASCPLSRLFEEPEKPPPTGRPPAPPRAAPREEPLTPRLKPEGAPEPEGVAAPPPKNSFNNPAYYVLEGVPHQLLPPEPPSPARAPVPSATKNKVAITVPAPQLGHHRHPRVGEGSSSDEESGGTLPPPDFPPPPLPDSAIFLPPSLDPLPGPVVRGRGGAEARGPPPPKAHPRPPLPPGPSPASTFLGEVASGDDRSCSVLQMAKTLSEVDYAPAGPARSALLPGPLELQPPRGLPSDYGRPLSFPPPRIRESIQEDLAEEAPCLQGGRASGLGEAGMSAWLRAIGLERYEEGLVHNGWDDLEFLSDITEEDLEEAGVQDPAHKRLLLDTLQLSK
UniProt Q68E01, whole entry, looked up: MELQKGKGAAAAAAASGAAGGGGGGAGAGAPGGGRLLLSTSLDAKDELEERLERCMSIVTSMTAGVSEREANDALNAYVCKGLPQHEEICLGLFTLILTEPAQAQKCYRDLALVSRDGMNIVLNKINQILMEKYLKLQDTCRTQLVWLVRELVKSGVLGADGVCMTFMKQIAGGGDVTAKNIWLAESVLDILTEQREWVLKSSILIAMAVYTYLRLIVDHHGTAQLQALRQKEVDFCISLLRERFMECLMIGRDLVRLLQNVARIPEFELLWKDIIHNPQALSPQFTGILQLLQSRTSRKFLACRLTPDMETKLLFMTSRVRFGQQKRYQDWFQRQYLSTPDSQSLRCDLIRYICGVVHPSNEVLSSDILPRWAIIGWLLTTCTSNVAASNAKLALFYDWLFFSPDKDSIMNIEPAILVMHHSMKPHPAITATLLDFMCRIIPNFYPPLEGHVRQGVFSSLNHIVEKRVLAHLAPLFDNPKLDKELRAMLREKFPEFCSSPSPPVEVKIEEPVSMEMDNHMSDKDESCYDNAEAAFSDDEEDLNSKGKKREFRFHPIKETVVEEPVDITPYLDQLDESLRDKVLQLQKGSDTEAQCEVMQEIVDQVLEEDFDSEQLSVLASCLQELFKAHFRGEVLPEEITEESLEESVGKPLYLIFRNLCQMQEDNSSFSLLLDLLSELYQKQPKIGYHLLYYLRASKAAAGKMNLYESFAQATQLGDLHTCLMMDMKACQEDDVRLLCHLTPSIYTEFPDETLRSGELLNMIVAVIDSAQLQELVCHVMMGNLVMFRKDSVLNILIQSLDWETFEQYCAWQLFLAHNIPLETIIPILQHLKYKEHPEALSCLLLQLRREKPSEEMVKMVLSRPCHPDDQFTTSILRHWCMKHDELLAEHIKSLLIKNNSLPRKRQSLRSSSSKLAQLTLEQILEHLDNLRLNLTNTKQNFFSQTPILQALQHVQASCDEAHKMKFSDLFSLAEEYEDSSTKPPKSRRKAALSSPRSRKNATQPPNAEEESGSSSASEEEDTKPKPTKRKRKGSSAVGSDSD
UniProt Q92835: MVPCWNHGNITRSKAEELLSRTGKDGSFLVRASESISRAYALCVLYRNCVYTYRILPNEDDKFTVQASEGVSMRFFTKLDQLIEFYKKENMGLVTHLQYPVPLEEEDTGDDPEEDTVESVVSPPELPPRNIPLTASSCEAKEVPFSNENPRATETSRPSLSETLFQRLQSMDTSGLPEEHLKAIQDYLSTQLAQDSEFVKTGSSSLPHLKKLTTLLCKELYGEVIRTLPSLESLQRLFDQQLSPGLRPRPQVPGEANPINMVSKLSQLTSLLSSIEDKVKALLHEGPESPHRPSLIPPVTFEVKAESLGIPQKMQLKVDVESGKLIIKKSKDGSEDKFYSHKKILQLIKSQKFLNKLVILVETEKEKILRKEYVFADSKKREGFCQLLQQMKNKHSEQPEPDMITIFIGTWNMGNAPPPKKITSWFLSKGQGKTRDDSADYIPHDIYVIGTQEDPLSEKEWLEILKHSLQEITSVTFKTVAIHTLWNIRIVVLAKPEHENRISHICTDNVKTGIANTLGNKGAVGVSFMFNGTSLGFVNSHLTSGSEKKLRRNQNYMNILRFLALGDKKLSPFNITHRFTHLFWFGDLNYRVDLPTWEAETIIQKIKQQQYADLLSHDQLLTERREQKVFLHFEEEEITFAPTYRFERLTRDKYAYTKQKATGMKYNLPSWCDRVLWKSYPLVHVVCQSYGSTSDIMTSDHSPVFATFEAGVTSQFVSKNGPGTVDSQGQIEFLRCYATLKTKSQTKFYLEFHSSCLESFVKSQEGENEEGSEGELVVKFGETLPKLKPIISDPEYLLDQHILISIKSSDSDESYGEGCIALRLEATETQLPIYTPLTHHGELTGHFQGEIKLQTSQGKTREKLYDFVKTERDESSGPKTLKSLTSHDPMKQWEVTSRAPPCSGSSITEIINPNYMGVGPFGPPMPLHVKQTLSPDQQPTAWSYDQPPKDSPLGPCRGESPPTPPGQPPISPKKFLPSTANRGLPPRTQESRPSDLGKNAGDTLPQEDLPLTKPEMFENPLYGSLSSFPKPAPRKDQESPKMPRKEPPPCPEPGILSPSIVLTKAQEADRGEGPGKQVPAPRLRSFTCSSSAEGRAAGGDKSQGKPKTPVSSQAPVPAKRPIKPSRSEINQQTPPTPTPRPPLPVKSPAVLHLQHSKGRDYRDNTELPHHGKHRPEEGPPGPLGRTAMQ
UniProt Q86VI3: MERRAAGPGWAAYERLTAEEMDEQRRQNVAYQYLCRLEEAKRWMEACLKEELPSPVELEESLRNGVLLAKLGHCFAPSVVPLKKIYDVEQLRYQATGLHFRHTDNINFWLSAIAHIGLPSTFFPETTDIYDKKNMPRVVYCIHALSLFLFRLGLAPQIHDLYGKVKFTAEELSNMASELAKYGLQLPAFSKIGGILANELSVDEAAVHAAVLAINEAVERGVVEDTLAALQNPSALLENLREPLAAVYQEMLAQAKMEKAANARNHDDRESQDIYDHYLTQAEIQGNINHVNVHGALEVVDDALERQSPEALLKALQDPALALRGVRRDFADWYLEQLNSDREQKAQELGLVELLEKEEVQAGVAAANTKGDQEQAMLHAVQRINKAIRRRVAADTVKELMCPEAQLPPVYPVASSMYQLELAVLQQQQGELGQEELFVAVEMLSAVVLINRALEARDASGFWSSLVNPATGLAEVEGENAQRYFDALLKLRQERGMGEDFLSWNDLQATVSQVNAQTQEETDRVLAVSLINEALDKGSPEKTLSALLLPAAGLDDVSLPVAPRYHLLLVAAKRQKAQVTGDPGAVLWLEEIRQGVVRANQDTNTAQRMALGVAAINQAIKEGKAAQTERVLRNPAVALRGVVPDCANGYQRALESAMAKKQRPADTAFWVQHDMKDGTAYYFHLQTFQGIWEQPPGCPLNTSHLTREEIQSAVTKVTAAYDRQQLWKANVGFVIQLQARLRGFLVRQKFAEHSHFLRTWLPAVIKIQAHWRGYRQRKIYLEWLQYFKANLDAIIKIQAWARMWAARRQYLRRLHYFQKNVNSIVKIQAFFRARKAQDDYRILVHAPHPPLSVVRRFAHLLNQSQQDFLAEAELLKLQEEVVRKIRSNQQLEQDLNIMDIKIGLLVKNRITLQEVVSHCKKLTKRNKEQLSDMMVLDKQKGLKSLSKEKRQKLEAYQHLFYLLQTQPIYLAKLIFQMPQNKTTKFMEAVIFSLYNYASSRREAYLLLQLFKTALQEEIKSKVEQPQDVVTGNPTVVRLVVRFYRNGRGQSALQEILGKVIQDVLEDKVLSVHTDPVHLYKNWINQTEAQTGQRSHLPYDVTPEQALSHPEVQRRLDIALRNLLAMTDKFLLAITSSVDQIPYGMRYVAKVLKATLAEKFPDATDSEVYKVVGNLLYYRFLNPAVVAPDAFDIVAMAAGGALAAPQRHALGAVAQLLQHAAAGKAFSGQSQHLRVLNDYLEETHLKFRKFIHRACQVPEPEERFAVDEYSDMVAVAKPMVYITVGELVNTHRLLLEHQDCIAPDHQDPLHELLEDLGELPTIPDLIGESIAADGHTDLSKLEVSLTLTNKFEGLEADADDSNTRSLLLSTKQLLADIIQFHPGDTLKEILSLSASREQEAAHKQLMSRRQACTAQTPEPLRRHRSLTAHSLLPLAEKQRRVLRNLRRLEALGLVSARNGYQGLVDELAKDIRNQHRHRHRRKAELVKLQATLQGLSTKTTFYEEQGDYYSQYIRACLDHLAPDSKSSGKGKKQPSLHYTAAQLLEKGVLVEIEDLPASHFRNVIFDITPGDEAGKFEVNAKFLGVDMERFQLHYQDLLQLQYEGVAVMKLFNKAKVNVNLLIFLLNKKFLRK
UniProt Q96A47: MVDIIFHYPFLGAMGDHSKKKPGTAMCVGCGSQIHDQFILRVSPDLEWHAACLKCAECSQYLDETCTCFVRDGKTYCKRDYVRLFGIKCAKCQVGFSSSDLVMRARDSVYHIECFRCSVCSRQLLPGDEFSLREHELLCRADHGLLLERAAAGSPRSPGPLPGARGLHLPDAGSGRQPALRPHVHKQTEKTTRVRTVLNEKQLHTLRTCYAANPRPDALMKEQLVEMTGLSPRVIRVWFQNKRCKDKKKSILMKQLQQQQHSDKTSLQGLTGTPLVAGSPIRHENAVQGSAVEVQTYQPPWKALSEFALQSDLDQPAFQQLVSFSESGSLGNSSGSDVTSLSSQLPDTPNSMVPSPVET
UniProt Q8TEX9: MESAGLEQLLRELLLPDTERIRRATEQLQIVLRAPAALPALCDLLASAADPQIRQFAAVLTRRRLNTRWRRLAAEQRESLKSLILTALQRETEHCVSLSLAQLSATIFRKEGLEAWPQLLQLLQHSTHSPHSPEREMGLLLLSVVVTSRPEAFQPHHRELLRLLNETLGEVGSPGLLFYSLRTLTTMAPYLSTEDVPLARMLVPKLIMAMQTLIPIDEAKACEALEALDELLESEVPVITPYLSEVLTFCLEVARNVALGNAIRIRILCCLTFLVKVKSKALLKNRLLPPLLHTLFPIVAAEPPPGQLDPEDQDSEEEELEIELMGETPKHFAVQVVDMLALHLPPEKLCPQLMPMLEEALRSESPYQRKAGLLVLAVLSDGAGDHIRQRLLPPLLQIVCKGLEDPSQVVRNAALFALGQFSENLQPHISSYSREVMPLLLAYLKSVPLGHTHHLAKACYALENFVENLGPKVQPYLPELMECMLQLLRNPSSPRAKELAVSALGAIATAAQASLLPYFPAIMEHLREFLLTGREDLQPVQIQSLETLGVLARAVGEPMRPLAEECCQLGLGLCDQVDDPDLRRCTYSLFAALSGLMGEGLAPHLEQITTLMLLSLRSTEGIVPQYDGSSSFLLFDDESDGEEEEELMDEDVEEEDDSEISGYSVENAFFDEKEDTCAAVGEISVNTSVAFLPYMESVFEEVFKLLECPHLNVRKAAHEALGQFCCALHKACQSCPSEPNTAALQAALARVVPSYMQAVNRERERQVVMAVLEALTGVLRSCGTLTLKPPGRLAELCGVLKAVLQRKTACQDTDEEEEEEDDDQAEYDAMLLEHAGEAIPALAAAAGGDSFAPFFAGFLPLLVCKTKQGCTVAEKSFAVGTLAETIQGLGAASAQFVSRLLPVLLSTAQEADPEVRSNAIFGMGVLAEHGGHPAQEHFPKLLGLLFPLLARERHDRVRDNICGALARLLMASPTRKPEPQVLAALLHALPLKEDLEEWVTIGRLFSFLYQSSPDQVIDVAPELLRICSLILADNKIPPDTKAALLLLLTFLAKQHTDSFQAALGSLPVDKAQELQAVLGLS

Compound: CC1Cc2ccccc2N1C(=O)C1CCCN(C1)C(=O)CCl (mixture of isomers) [TRIM25 ligand 11 (diastereomer mixture)]
Experiment: probe-labelled cysteine peptide fold change vs DMSO (competition) (log2 fold change); higher = less target engagement (more negative = stronger competition)
Conditions: THP-1, incubation time: 4 h
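Also: competitive chemoproteomic profiling in live THP-1 cells with an iodoacetamide desthiobiotin (IA-DTB) probe, comparing probe-labelled peptide intensities in compound-treated cells against DMSO-treated controls.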

Row | Target | probe-labelled cysteine peptide fold change (10 µM) | probe-labelled cysteine peptide fold change (50 µM)
1 | ITGB2_P05107_445_ALGFTDIVTVQVLPQCECR (UniProt P05107) | 0.102 | 0.099
2 | IRF2BP1_Q8IU81_518_ERLEDTHFVQCPSVPGHK (UniProt Q8IU81) | -0.184 | -0.254
3 | ITGAM_P11215_144_GCPQEDSDIAFLIDGSGSIIPHDFR (UniProt P11215) | 0.346 | 0.196
4 | IRF2BP2_Q7Z5L9_509_EVGGQGAGNTGGLEPVHPASLPDSSLATSAPLCCTLCHER (UniProt Q7Z5L9) | 0.00326 | 0.127
5 | INPPL1_O15357_926_KPAFTEASCPLSR (UniProt O15357) | -0.133 | -0.273
6 | INTS3_Q68E01_866_MVLSRPCHPDDQFTTSILR (UniProt Q68E01) | 0.0118 | -0.0418
7 | INPP5D_Q92835_819_SSDSDESYGEGCIALR (UniProt Q92835) | -0.0674 | -0.00858
8 | IPO11_Q9UI26_252_QFLECSR (UniProt Q9UI26) | 0.00466 | 0.186
9 | IQGAP3_Q86VI3_1254_ACQVPEPEER (UniProt Q86VI3) | -0.105 | 0.0275
10 | IPO13_O94829_848_CGEVESVGK (UniProt O94829) | -0.0111 | -0.255
11 | INSR_P06213_153_NNELCYLATIDWSR (UniProt P06213) | 0.00884 | 0.0408
12 | IP6K1_Q92551_48_YDDHTVCK (UniProt Q92551) | 0.0272 | -0.101
13 | IPO7_O95373_504_CLIDDR (UniProt O95373) | 0.0495 | 0.164
14 | ITGB2_P05107_670_DSEGCWVAYTLEQQDGMDR (UniProt P05107) | 0.401 | 0.18
15 | IQGAP1_P46940_660_SPDVGLYGVIPECGETYHSDLAEAK (UniProt P46940) | -0.0642 | -0.179
16 | INTS9_Q9NV88_391_QPCVVFTGHPSLR (UniProt Q9NV88) | 0.32 | 0.146
17 | IPO9_Q96P70_545_AIWGYCDQLK (UniProt Q96P70) | -0.000505 | -0.00285
18 | INSR_P06213_899_YGDEELHLCVSR (UniProt P06213) | 0.0425 | -0.0874
19 | IRF3_Q14653_267_HVLSCLGGGLALWR (UniProt Q14653) | -0.17 | 0.346

Reprinted at random: 2 records from the list, in no set order.
Row | Target | probe-labelled cysteine peptide fold change (10 µM) | probe-labelled cysteine peptide fold change (50 µM)
5 | INPPL1_O15357_926_KPAFTEASCPLSR (UniProt O15357) | -0.133 | -0.273
7 | INPP5D_Q92835_819_SSDSDESYGEGCIALR (UniProt Q92835) | -0.0674 | -0.00858

Continuation:

Row | Target | probe-labelled cysteine peptide fold change (10 µM) | probe-labelled cysteine peptide fold change (50 µM)
20 | ITGAL_P20701_1154_GVPNGIPAEDSEQLASGQEAGDPGCLKPLHEK (UniProt P20701) | -0.0824 | -0.106
21 | ITGA5_P08648_192_ILEYAPCR (UniProt P08648) | 0.036 | 0.154
22 | ISL2_Q96A47_30_KKPGTAMCVGCGSQIHDQFILR (UniProt Q96A47) | -0.0558 | 0.0905
23 | IREB2_P48200_178_GSCDSGELGR (UniProt P48200) | 0.0878 | -0.123
24 | IQGAP1_P46940_494_QLSSSVTGLTNIEEENCQR (UniProt P46940) | 0.0951 | 0.0264
25 | IQGAP3_Q86VI3_1411_RQACTAQTPEPLRR (UniProt Q86VI3) | 0.00454 | 0.0194
26 | IPO4_Q8TEX9_459_ACYALENFVENLGPK (UniProt Q8TEX9) | 0.062 | 0.238
27 | IPO4_Q8TEX9_708_LLECPHLNVR (UniProt Q8TEX9) | 0.0843 | -0.118
28 | ITGB2_P05107_670_ERDSEGCWVAYTLEQQDGMDR (UniProt P05107) | 0.257 | 0.183
29 | INSR_P06213_462_LCLSEIHK (UniProt P06213) | 0.0282 | 0.0252
30 | IPO5_O00410_682_STACQMLVCYAK (UniProt O00410) | 0.0588 | 0.0264
31 | INTS1_Q8N201_1833_VPVPEVLLHSEGAASSSVCK (UniProt Q8N201) | 0.0332 | -0.0377
32 | INSR_P06213_1083_GFTCHHVVR (UniProt P06213) | 0.179 | 0.357
33 | IPO8_O15397_749_LLEVIILQCK (UniProt O15397) | 0.0753 | 0.0201
34 | INPPL1_O15357_1121_SCSVLQMAK (UniProt O15357) | -0.0594 | -0.469
35 | INTS3_Q68E01_866_PCHPDDQFTTSILR (UniProt Q68E01) | -0.0485 | 0.115
36 | ITGB2_P05107_73_GCAADDIMDPTSLAETQEDHNGGQK (UniProt P05107) | -0.0388 | 0.0326
37 | ITGB1_P05556_64_CDDLEALK (UniProt P05556) | -0.0378 | -0.0333
38 | INTS8_Q75QN2_42_KPCPDPAPVQLIVQFLEQASKPSVNEQNQVQPPPDNKR (UniProt Q75QN2) | -0.272 | 0.0474
